The assay has as its target T1, RRM2-HT (C-terminal fusion of the HaloTag to RRM2) (UniProt P31350).
T1 sequence (chain, HaloTag NanoBRET 618 Ligand on the HaloTag): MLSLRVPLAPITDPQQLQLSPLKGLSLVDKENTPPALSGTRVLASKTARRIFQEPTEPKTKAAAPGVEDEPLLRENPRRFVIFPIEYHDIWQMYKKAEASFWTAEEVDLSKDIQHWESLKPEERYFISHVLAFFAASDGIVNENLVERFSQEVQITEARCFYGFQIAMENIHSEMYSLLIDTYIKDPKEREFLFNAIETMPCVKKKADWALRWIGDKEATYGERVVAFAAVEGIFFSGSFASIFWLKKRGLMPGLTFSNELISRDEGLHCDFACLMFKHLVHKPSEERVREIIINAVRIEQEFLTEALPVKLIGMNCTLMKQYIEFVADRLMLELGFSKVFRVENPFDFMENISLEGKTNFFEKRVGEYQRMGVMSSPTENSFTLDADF
The experiment in a line: FRET or BRET. On the technique in general: BRET reads energy transfer from a luciferase to a nearby fluorophore.

No constants are given. Whether binding was seen depends on the method and setting. Binding seen in cells or lysates may run through a third protein. Some entries that bind do so weakly or less than the wild type. Sequences can lack the tags named with a protein.

B1: Nluc-PHF6 (N-terminal fusion of the NanoLuc luciferase to full length PHF6) (protein, UniProt Q8IWS0 1-365)
chain: MSSSVEQKKGPTRQRKCGFCKSNRDKECGQLLISENQKVAAHHKCMLFSSALVSSHSDNESLGGFSIEDVQKEIKRGTKLMCSLCHCPGATIGCDVKTCHRTYHYHCALHDKAQIREKPSQGIYMVYCRKHKKTAHNSEADLEESFNEHELEPSSPKSKKKSRKGRPRKTNFKGLSEDTRSTSSHGTDEMESSSYRDRSPHRSSPSDTRPKCGFCHVGEEENEARGKLHIFNAKKAAAHYKCMLFSSGTVQLTTTSRAEFGDFDIKTVLQEIKRGKRMKCTLCSQPGATIGCEIKACVKTYHYHCGVQDKAKYIENMSRGIYKLYCKNHSGNDERDEEDEERESKSRGKVEIDQQQLTQQQLNGN
With B1, the binding entry was “binds”.

The values are drawn from article doi:10.1101/2023.03.08.531704.
